The text below walks through data of US20230406921A1.

By UniProt entry, the sequences of proteins in these tests, tags left out. Residues count along the entry.
UniProt Q9NZQ7, residues 19-290: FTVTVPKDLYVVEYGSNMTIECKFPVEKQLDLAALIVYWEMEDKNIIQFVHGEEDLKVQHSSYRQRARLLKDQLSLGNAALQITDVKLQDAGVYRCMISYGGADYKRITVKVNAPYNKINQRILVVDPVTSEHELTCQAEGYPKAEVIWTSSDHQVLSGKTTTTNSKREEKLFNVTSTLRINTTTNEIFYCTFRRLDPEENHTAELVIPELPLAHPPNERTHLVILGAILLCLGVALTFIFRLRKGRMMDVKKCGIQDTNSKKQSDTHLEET
UniProt Q08722, residues 19-139: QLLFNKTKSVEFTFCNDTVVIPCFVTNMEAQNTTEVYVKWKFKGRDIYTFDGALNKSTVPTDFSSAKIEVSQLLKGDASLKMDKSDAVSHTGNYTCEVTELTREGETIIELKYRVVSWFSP

Test [1] deals with human PD-L1 on cells (human) (UniProt Q9NZQ7). Kind of test: flow cytometry on A431 cells. A general note: In flow cytometry, cells or beads pass a laser one at a time.
The target is the same in test [2]. Kind of test: flow cytometry on MC38-hPD-L1/hCD47 cells.
In the next test the target is CD47-His (human) (UniProt Q08722). Put plainly: Fortebio BLI. Background: In BLI a coated tip is dipped into the sample, and binding shifts an interference pattern.

No constants are given. Whether binding was seen depends on the method and setting. Some entries that bind do so weakly or less than the wild type.

B1: anti-PD-L1 monoclonal antibody (hz182) (antibody, human IgG4 S228P, kappa, V domains shown)
VH: QLVQSGAEVKKPGATVKISCKVSGFNIKDIYMHWVQQAPGKGLEWMGRIDPANANTKYDPKFQDRVTITADTSTNTAYMELSSLRSEDTAVYYCASGQLGPLGFDYWGQGTTVTVSS
VL: DIQMTQSPSSLSASVGDRVTITCRASQDISNYLNWYQQKPGKAPKLLLYYTSRLHSGVPSRFSGSGSGTDYTLTISSLQPEDFATYFCQQGAGRPYTFGGGTKVEIKR
Consider B1, for which the binding result in test [1] and in test [2] was “binds” each time.

B2: humanized 140 (hz140) (antibody, human IgG4 S228P, kappa, V domains shown)
VH: QVQLVQSGAEVKKPGASVKVSCKASGYKFTNYVMHWVRQAPGQRLEWMGYINPYNDGIKYNEKFTGRVTITRDTSASTAYMELSSLRSEDTAVYYCAREGDFYANYGRLGFAYWGQGTLVTVSS
VL: DIQMTQSPSSLSASVGDRVTITCRASQDITNYLNWYQQKPGKAPKLLIYYTSRLHSGVPSRFSGSGSGTDYTFTISSLQPEDIATYFCQQGDTFPRTFGGGTKVEIKR
With B2, the binding entry with CD47-His (human) is on record as “binds”.
